Experiments:
ASK1/MAP3K5 = ASK1/MAP3K5 (Homo sapiens, UniProt Q99683); conditions: 1 μM; Run 1, Run 2
BRSK2 = BRSK2 (Homo sapiens, UniProt Q8IWQ3); conditions: 1 μM; Run 1, Run 2
CAMK1g = CAMK1g (Homo sapiens, UniProt Q96NX5); conditions: 1 μM; Run 1, Run 2
CDK8/cyclin C = CDK8/cyclin C (Homo sapiens, UniProt P49336); conditions: 1 μM; Run 1, Run 2
CLK4 = CLK4 (Homo sapiens, UniProt Q9HAZ1); conditions: 1 μM; Run 1, Run 2
EPHA4 = EPHA4 (Homo sapiens, UniProt P54764); conditions: 1 μM; Run 1, Run 2
EPHA8 = EPHA8 (Homo sapiens, UniProt P29322); conditions: 1 μM; Run 1, Run 2
ERK7/MAPK15 = ERK7/MAPK15 (Homo sapiens, UniProt Q8TD08); conditions: 1 μM; Run 1, Run 2
GRK7 = GRK7 (Homo sapiens, UniProt Q8WTQ7); conditions: 1 μM; Run 1, Run 2
JNK2 = JNK2 (Homo sapiens, UniProt P45984); conditions: 1 μM; Run 1, Run 2
MEK2 = MEK2 (Homo sapiens, UniProt P36507); conditions: 1 μM; Run 1, Run 2
MEK3 = MEK3 (Homo sapiens, UniProt P46734); conditions: 1 μM; Run 1, Run 2
MLCK2/MYLK2 = MLCK2/MYLK2 (Homo sapiens, UniProt Q9H1R3); conditions: 1 μM; Run 1, Run 2
MLK3/MAP3K11 = MLK3/MAP3K11 (Homo sapiens, UniProt Q16584); conditions: 1 μM; Run 1, Run 2
MST4 = MST4 (Homo sapiens, UniProt Q9P289); conditions: 1 μM; Run 1, Run 2
PAK2 = PAK2 (Homo sapiens, UniProt Q13177); conditions: 1 μM; Run 1, Run 2
PDK1/PDPK1 = PDK1/PDPK1 (Homo sapiens, UniProt O15530); conditions: 1 μM; Run 1, Run 2
PHKg1 = PHKg1 (Homo sapiens, UniProt Q16816); conditions: 1 μM; Run 1, Run 2
PKCnu/PRKD3 = PKCnu/PRKD3 (Homo sapiens, UniProt O94806); conditions: 1 μM; Run 1, Run 2
PKN1/PRK1 = PKN1/PRK1 (Homo sapiens, UniProt Q16512); conditions: 1 μM; Run 1, Run 2
STK16 = STK16 (Homo sapiens, UniProt O75716); conditions: 1 μM; Run 1, Run 2
TAOK2/TAO1 = TAOK2/TAO1 (Homo sapiens, UniProt Q9UL54); conditions: 1 μM; Run 1, Run 2
TIE2/TEK = TIE2/TEK (Homo sapiens, UniProt Q02763); conditions: 1 μM; Run 1, Run 2
TTBK1 = TTBK1 (Homo sapiens, UniProt Q5TCY1); conditions: 1 μM; Run 1, Run 2
ULK1 = ULK1 (Homo sapiens, UniProt O75385); conditions: 1 μM; Run 1, Run 2
WNK1 = WNK1 (Homo sapiens, UniProt Q9H4A3); conditions: 1 μM; Run 1, Run 2
IR = IR (Homo sapiens, UniProt P06213); test: biochemical; conditions: read-out: % enzyme activity, 1 μM; Run 1, Run 2
LYN = LYN (Homo sapiens, UniProt P07948); test: biochemical; conditions: read-out: % enzyme activity, 1 μM; Run 1, Run 2
MAPKAPK3 = MAPKAPK3 (Homo sapiens, UniProt Q16644); test: biochemical; conditions: read-out: % enzyme activity, 1 μM; Run 1, Run 2
MEK5 = MEK5 (Homo sapiens, UniProt Q13163); test: biochemical; conditions: read-out: % enzyme activity, 1 μM; Run 1, Run 2
MEKK2 = MEKK2 (Homo sapiens, UniProt Q9Y2U5); test: biochemical; conditions: read-out: % enzyme activity, 1 μM; Run 1, Run 2
MUSK = MUSK (Homo sapiens, UniProt O15146); test: biochemical; conditions: read-out: % enzyme activity, 1 μM; Run 1, Run 2
NEK2 = NEK2 (Homo sapiens, UniProt P51955); test: biochemical; conditions: read-out: % enzyme activity, 1 μM; Run 1, Run 2
PKCd = PKCd (Homo sapiens, UniProt Q05655); test: biochemical; conditions: read-out: % enzyme activity, 1 μM; Run 1, Run 2
PKG2/PRKG2 = PKG2/PRKG2 (Homo sapiens, UniProt Q13237); test: biochemical; conditions: read-out: % enzyme activity, 1 μM; Run 1, Run 2
PKN3/PRK3 = PKN3/PRK3 (Homo sapiens, UniProt Q6P5Z2); test: biochemical; conditions: read-out: % enzyme activity, 1 μM; Run 1, Run 2
PLK2 = PLK2 (Homo sapiens, UniProt Q9NYY3); test: biochemical; conditions: read-out: % enzyme activity, 1 μM; Run 1, Run 2
ROCK1 = ROCK1 (Homo sapiens, UniProt Q13464); test: biochemical; conditions: read-out: % enzyme activity, 1 μM; Run 1, Run 2
RSK4 = RSK4 (Homo sapiens, UniProt Q9UK32); test: biochemical; conditions: read-out: % enzyme activity, 1 μM; Run 1, Run 2
SIK3 = SIK3 (Homo sapiens, UniProt Q9Y2K2); test: biochemical; conditions: read-out: % enzyme activity, 1 μM; Run 1, Run 2
TRKB = TRKB (Homo sapiens, UniProt Q16620); test: biochemical; conditions: read-out: % enzyme activity, 1 μM; Run 1, Run 2
TSSK3/STK22C = TSSK3/STK22C (Homo sapiens, UniProt Q96PN8); test: biochemical; conditions: read-out: % enzyme activity, 1 μM; Run 1, Run 2
ULK2 = ULK2 (Homo sapiens, UniProt Q8IYT8); test: biochemical; conditions: read-out: % enzyme activity, 1 μM; Run 1, Run 2

By UniProt entry, the sequences of proteins in these tests, tags left out. Where a name states a change or a piece, a line headed by the entry shows the natural chain unless it says otherwise. Residues count along the entry.
UniProt P29322, 28-1005: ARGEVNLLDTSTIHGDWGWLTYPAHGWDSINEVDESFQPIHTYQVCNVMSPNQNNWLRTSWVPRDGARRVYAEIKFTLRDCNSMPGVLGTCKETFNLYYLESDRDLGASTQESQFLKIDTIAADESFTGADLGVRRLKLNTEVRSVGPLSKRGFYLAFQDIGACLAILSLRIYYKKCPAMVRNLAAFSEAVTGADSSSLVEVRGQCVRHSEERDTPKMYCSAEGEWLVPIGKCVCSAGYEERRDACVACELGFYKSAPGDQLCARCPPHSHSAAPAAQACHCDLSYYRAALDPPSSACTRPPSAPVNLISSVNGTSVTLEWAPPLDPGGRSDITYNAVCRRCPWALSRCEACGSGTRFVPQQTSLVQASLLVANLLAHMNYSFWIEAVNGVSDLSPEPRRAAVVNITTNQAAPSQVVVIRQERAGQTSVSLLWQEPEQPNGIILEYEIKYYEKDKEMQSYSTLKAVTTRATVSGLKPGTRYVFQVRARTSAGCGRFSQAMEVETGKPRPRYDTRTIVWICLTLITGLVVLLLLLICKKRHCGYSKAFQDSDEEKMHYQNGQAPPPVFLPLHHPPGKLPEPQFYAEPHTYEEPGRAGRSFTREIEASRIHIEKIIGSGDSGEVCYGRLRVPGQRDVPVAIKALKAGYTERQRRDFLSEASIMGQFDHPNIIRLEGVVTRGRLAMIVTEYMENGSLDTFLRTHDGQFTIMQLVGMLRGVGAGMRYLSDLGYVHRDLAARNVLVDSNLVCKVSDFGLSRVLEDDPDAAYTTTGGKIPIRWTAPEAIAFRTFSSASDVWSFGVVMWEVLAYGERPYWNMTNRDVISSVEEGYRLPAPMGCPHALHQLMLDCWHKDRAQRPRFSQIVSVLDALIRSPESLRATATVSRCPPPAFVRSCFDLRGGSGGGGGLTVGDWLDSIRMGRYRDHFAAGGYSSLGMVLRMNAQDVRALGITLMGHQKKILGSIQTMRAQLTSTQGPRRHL
UniProt Q9H1R3: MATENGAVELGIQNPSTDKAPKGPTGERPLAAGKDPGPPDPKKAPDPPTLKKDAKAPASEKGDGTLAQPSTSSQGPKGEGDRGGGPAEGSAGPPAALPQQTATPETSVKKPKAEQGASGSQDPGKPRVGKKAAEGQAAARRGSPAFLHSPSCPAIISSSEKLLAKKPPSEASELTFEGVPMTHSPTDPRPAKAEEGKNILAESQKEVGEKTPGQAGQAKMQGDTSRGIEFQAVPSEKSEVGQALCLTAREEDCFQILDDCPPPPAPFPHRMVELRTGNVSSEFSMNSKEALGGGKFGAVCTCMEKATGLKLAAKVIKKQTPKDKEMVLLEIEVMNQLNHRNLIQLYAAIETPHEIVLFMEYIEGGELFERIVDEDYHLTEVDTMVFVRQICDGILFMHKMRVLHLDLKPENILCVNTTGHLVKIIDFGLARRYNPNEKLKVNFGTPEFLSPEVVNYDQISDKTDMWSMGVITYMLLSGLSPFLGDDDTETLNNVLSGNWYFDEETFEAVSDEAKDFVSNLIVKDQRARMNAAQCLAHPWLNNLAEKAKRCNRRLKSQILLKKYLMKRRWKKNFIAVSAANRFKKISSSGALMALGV
UniProt Q13177, whole entry: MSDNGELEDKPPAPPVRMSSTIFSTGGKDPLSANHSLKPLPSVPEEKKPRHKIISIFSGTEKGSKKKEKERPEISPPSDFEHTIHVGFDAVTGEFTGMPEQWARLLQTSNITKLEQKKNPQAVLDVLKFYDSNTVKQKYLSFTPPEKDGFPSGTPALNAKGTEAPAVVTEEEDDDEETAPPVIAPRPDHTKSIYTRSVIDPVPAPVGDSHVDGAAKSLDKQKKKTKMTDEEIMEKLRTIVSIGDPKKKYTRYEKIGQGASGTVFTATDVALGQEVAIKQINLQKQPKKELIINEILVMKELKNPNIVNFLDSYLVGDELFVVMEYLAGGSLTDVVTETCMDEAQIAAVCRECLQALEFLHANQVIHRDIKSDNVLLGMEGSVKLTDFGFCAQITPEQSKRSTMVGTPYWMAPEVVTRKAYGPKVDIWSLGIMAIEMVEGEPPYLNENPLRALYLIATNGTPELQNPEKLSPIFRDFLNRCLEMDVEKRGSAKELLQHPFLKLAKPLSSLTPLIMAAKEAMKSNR
UniProt Q5TCY1: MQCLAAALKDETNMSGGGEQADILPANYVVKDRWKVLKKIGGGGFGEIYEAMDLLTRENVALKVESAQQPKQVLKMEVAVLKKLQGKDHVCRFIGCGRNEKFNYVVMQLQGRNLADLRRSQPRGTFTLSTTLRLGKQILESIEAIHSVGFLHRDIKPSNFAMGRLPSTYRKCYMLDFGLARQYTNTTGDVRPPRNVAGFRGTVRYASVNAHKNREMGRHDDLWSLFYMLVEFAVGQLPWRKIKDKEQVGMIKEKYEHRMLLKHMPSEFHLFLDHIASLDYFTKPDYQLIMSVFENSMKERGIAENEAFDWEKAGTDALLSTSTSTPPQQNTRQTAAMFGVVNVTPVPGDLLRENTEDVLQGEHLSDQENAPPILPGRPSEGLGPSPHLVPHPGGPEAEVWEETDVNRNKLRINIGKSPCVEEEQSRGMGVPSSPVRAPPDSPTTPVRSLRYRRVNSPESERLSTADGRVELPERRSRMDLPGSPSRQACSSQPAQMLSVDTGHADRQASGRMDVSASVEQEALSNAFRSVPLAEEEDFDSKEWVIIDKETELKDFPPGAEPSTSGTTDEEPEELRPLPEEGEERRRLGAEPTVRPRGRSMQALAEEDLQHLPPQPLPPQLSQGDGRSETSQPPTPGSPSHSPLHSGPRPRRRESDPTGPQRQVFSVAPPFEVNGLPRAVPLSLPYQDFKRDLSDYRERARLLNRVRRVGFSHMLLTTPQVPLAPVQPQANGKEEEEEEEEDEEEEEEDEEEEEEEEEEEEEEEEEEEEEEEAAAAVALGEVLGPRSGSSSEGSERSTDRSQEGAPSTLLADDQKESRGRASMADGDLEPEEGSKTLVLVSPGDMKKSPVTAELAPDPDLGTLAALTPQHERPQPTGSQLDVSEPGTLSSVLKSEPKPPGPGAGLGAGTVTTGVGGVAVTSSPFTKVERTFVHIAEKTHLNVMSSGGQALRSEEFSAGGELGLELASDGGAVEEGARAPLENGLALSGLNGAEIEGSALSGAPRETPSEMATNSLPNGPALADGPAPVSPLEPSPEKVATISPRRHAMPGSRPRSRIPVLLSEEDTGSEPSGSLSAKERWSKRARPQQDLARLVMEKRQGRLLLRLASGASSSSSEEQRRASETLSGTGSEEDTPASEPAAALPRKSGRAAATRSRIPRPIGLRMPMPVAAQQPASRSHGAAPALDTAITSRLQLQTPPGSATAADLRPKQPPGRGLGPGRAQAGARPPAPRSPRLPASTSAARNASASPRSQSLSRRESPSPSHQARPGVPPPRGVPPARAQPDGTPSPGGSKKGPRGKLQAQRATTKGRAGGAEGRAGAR
UniProt O75385, whole entry, species assumed: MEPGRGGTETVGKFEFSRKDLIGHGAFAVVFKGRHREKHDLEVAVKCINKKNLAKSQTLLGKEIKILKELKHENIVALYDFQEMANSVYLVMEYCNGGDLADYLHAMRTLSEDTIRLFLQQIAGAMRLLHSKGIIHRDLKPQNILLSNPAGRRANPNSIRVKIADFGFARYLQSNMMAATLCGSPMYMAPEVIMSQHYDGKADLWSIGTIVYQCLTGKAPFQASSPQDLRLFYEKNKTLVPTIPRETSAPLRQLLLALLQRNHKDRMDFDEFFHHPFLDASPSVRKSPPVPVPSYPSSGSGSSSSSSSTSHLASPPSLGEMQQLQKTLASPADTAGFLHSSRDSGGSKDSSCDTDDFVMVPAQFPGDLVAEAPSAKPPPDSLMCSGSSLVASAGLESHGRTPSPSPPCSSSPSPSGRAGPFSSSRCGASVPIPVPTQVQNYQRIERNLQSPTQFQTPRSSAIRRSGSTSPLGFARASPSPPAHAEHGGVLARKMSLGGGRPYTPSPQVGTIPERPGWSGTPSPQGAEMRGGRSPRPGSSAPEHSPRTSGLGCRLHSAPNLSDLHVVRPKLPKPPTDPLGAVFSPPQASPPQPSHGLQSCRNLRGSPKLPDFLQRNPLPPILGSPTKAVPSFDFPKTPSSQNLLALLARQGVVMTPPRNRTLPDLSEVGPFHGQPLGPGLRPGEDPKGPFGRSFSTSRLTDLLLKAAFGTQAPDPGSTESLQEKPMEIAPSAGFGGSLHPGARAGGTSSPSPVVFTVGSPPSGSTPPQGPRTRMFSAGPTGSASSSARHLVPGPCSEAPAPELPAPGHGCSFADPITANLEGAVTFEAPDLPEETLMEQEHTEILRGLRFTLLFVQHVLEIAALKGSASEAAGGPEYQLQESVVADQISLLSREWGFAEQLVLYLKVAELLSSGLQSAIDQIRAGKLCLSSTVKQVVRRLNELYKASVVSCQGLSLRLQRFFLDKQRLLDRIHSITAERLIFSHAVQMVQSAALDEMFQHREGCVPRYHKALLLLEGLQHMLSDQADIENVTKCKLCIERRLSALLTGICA
UniProt Q13163: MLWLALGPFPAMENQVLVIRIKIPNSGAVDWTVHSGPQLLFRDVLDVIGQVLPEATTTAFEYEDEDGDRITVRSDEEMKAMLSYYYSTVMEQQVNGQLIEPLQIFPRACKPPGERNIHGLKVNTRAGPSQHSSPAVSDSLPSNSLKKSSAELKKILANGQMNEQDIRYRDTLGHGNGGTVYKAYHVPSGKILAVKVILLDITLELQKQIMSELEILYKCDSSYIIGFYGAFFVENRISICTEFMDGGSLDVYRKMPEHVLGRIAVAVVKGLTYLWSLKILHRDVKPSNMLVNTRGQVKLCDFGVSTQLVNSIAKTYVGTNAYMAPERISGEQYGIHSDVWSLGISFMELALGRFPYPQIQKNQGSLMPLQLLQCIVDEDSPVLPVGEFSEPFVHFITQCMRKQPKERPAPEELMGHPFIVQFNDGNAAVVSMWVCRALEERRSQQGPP
UniProt O15146, 24-869: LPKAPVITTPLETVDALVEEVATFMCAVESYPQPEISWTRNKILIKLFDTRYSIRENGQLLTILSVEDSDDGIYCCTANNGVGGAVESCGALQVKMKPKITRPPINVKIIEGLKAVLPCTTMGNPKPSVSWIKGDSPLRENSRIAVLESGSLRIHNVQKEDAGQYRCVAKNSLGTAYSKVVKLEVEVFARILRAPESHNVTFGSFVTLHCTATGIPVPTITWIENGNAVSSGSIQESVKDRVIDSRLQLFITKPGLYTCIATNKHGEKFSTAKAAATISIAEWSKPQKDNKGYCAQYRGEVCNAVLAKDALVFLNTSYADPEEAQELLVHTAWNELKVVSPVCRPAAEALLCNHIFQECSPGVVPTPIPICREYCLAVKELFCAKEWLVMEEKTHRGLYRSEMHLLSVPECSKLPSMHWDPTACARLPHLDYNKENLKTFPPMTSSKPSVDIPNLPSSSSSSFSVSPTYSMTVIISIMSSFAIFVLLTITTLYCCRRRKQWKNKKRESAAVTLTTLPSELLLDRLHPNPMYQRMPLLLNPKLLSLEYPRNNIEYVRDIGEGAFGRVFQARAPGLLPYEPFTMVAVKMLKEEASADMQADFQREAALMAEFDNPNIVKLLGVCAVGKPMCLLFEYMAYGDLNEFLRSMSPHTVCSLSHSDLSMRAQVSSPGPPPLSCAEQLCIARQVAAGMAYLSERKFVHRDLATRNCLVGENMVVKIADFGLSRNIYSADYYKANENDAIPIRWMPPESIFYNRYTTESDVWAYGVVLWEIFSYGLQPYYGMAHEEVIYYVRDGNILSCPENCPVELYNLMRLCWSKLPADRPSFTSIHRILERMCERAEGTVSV
UniProt Q9UK32, whole entry: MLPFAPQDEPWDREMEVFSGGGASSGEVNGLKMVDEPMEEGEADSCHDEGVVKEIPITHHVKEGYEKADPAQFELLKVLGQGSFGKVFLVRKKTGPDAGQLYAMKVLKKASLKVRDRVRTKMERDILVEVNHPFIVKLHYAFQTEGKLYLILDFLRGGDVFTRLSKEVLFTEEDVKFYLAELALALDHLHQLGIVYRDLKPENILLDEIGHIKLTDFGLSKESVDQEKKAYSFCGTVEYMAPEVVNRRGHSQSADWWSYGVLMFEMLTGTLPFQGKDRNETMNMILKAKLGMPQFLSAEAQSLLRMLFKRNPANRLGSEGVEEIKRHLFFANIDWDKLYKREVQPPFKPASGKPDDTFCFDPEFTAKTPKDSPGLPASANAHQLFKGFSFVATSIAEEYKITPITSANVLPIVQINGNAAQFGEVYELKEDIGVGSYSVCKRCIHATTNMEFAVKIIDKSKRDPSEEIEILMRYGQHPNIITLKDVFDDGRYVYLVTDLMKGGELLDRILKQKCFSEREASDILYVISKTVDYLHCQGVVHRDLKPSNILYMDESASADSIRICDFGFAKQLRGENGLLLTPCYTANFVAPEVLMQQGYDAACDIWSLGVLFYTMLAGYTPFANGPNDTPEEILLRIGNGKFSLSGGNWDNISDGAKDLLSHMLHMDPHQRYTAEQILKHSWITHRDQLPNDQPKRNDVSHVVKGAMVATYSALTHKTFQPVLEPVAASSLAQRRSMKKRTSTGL

COc1cc(-c2cncc(-c3ccc(N4CCN(C(C)C)CC4)cc3)c2C)cc(F)c1C(N)=O [Compound 26b, 2-Fluoro-4-(5-(4-(4-isopropylpiperazin-1-yl)phenyl)-4-methylpyridin-3-yl)-6-methoxybenzamide]
% enzyme activity (ASK1/MAP3K5): 99.17%
% enzyme activity (BRSK2): 71.41%
% enzyme activity (CAMK1g): 97.85%
% enzyme activity (CDK8/cyclin C): 89.57%
% enzyme activity (CLK4): 93.34%
% enzyme activity (EPHA4): 99.89%
% enzyme activity (EPHA8): 95.79%
% enzyme activity (ERK7/MAPK15): 89.98%
% enzyme activity (GRK7): 100.06%
% enzyme activity (JNK2): 90.94%
% enzyme activity (MEK2): 89.42%
% enzyme activity (MEK3): 103.04%
% enzyme activity (MLCK2/MYLK2): 81.15%
% enzyme activity (MLK3/MAP3K11): 101.95%
% enzyme activity (MST4): 90.53%
% enzyme activity (PAK2): 104.17%
% enzyme activity (PDK1/PDPK1): 93.89%
% enzyme activity (PHKg1): 92.81%
% enzyme activity (PKCnu/PRKD3): 144.24%
% enzyme activity (PKN1/PRK1): 94.01%
% enzyme activity (STK16): 99.20%
% enzyme activity (TAOK2/TAO1): 81.16%
% enzyme activity (TIE2/TEK): 91.97%
% enzyme activity (TTBK1): 93.79%
% enzyme activity (ULK1): 82.29%
% enzyme activity (WNK1): 100.13%
remaining activity at 1 µM (IR): 101%
remaining activity at 1 µM (LYN): 84%
remaining activity at 1 µM (MAPKAPK3): 99.5%
remaining activity at 1 µM (MEK5): 96.3%
remaining activity at 1 µM (MEKK2): 81.1%
remaining activity at 1 µM (MUSK): 90.3%
remaining activity at 1 µM (NEK2): 93%
remaining activity at 1 µM (PKCd): 93.4%
remaining activity at 1 µM (PKG2/PRKG2): 95.7%
remaining activity at 1 µM (PKN3/PRK3): 101%
remaining activity at 1 µM (PLK2): 93.6%
remaining activity at 1 µM (ROCK1): 97%
remaining activity at 1 µM (RSK4): 97.3%
remaining activity at 1 µM (SIK3): 72.6%
remaining activity at 1 µM (TRKB): 109%
remaining activity at 1 µM (TSSK3/STK22C): 95.1%
remaining activity at 1 µM (ULK2): 81.1%

From PMC8213057, “Targeting ALK2: An Open Science Approach to Developing Therapeutics for the Treatment of Diffuse Intrinsic Pontine Glioma” (Journal of Medicinal Chemistry, 2020)
